# In the supplement of paper PMC10849652:
# Sequences of proteins named here, by UniProt entry; tags and fusion partners are left off. A change or cut given only in a name is not applied to a line headed by its entry.
# UniProt Q9H347: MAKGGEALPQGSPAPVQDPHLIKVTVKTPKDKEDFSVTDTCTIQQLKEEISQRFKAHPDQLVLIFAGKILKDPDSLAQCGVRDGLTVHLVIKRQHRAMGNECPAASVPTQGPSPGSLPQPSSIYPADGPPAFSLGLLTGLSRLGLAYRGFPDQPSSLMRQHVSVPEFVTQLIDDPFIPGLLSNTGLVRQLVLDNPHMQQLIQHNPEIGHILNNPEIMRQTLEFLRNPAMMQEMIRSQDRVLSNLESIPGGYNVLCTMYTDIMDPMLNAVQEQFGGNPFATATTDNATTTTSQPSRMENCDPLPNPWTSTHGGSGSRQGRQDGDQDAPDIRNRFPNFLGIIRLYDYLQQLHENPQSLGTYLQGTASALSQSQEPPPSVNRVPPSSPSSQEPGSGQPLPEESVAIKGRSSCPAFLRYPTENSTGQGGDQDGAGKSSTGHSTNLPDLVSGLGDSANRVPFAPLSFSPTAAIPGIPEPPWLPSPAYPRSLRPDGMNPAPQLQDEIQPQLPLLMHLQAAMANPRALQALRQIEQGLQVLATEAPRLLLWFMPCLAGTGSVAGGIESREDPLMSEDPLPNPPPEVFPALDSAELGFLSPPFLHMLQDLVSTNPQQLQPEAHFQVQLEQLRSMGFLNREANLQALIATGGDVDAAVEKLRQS
# UniProt P54578: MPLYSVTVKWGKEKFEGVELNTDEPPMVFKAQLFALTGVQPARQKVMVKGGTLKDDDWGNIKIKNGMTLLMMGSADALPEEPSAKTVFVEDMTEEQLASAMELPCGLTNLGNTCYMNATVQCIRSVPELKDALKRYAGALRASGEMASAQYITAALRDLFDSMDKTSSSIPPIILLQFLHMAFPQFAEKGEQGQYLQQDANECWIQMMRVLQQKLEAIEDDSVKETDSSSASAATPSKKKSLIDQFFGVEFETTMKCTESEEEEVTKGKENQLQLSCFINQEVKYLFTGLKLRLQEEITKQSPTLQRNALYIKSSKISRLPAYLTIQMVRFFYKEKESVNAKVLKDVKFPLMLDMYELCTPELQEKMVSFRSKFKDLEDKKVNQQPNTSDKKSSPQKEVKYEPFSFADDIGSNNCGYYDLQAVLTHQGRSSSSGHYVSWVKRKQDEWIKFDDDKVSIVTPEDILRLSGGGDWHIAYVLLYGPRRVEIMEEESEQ
# UniProt Q8WVY7: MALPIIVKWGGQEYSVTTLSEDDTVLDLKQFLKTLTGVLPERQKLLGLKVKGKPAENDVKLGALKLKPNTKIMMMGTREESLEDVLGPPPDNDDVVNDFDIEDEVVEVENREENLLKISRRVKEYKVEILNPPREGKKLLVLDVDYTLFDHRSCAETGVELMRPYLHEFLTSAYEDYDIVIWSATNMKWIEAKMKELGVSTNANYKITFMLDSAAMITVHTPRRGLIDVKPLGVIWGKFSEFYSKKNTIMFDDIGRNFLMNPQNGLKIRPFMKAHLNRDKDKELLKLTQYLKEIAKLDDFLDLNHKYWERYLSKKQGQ
# UniProt Q92890: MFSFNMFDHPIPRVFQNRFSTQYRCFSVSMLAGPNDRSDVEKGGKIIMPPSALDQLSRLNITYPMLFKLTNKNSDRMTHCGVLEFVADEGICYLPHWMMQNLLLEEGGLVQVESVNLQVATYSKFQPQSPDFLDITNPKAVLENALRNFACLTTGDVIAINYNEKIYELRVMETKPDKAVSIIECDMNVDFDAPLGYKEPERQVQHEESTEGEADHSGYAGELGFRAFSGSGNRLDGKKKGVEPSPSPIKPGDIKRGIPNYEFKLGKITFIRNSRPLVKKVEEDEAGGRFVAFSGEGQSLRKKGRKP
# UniProt Q86UV5: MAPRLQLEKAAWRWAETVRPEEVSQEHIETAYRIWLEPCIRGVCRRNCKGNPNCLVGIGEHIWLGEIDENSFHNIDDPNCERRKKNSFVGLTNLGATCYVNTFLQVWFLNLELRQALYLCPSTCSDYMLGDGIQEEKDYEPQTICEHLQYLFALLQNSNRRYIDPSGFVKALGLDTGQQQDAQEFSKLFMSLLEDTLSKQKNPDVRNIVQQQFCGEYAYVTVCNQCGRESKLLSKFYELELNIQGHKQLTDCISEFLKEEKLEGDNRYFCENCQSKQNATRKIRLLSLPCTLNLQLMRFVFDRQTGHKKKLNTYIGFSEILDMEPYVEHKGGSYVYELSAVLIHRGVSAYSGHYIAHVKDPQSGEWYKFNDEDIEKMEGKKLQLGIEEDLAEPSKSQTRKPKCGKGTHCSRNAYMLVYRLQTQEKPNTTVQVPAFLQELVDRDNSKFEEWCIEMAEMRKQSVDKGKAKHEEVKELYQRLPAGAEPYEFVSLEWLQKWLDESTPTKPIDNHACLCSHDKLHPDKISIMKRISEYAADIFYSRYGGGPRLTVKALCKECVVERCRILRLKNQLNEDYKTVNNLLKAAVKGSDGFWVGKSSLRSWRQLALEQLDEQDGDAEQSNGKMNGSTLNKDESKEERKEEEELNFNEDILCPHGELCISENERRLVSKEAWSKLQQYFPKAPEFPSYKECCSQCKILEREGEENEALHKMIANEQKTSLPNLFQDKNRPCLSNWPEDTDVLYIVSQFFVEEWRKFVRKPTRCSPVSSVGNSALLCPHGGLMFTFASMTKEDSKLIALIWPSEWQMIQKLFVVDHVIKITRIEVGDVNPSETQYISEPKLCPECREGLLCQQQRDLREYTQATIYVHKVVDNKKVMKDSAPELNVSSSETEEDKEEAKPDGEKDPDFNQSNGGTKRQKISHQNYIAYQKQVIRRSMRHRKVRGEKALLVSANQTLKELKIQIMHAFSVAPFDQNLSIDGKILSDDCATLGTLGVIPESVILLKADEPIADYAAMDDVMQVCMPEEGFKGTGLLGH
# UniProt C9J7I0: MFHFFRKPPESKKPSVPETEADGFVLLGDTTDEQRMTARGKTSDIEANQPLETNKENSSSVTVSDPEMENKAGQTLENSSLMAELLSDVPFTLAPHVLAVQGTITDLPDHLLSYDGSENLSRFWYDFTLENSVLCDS
# UniProt Q9UMX0, whole entry, looked up: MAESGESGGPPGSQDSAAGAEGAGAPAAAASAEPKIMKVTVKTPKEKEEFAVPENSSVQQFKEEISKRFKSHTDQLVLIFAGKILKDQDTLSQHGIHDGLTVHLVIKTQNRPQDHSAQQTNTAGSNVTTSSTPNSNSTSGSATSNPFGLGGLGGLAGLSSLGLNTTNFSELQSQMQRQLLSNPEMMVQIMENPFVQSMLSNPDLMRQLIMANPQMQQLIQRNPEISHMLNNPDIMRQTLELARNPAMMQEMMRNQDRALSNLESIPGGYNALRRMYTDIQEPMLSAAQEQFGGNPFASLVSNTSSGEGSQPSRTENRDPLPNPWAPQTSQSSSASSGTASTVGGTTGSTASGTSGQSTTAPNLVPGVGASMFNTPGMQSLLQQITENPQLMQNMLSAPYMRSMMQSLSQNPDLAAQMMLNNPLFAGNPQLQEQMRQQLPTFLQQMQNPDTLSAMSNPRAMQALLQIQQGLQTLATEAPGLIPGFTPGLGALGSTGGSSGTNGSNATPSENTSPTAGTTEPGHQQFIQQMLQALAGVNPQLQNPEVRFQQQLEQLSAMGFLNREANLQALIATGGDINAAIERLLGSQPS
# UniProt Q6ZU65, whole entry, looked up: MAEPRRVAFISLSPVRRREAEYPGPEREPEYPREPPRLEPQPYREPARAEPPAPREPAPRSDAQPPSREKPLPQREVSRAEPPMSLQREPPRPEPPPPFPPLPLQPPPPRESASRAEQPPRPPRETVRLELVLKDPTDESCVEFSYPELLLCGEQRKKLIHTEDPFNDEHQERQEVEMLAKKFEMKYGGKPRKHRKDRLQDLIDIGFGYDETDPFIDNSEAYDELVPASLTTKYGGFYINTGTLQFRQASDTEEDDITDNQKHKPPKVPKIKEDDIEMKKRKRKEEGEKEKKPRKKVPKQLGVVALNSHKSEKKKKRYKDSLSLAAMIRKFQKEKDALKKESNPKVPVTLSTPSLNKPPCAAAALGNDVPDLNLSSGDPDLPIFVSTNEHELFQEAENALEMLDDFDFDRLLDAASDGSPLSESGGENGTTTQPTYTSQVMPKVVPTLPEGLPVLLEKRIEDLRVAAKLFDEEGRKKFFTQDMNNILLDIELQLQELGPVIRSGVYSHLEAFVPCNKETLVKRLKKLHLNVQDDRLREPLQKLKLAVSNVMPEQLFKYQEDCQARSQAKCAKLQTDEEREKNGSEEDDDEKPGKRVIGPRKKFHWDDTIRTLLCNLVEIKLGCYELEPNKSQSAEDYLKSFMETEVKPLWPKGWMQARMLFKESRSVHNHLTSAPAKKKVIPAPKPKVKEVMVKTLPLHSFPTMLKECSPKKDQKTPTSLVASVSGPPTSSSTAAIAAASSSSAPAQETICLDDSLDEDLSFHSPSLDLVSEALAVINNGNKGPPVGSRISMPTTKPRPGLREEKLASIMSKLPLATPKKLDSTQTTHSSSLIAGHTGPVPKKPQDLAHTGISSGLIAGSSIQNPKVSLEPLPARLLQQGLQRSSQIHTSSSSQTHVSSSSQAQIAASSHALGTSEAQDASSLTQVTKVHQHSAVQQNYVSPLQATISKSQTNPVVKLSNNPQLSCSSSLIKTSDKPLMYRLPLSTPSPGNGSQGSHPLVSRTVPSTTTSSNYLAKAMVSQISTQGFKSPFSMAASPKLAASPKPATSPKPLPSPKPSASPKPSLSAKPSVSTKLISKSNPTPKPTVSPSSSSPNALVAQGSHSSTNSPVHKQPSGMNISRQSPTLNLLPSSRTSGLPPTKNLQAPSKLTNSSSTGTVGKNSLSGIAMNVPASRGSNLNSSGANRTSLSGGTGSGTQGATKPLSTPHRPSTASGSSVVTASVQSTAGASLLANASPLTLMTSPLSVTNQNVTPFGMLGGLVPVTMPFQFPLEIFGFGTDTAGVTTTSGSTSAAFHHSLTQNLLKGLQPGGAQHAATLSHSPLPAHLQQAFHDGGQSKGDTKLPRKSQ
# UniProt P51784: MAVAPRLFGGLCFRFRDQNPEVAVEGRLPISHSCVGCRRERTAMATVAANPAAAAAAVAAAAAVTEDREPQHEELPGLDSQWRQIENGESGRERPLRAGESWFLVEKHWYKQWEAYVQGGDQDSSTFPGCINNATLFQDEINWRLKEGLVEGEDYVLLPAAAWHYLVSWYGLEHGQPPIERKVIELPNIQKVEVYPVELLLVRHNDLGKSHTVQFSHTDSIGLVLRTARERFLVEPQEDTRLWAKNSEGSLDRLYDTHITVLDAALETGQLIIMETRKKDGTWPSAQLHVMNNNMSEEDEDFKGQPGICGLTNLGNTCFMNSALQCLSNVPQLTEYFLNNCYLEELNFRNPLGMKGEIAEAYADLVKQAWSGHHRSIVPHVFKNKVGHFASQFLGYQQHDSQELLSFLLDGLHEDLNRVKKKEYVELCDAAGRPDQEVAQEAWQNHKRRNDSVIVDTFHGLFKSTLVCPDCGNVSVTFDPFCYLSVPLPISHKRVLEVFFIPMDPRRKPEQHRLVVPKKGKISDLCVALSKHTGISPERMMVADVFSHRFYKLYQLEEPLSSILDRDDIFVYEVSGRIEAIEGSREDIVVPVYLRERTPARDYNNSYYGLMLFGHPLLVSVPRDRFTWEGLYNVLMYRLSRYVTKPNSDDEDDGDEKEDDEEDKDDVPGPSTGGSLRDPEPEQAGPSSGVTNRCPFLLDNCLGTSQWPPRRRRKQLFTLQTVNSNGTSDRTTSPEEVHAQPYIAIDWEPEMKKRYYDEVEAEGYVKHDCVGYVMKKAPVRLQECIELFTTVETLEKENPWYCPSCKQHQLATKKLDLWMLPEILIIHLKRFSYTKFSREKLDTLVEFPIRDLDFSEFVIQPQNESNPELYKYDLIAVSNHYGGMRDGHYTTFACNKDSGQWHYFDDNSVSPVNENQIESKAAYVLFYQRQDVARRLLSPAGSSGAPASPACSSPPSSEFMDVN
# UniProt Q96LJ8: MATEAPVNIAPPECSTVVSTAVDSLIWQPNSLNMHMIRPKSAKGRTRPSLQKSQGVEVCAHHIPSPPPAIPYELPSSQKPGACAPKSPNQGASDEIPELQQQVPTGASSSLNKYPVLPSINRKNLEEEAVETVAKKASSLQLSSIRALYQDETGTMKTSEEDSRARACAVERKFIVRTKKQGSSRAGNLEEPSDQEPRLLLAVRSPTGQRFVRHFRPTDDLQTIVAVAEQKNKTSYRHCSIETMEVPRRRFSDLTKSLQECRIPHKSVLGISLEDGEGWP
# UniProt Q9Y5Z9: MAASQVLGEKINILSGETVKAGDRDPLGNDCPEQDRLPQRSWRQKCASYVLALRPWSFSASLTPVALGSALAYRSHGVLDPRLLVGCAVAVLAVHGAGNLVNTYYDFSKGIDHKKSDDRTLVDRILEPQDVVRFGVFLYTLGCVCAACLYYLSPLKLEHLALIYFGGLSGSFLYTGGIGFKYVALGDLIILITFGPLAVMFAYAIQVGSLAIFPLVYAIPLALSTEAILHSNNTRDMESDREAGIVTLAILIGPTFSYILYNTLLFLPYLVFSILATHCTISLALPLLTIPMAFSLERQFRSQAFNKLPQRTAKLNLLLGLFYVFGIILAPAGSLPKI
# Some of the results follow. Residues, ends and D or L forms follow the SMILES beside them. *: point of attachment. Cbz = O=C(OCc1ccccc1)*
# How the values were obtained:
# Experiment in all cases: log2 fold change, soluble protein after heating vs DMSO (PISA); higher = thermal stabilisation; K562 cells, 10 uM, 30 min; active = over 0.2 and 3.5 SD of the protein, either way, in both replicates (recomputed)
# erlotinib = compound: C#Cc1cccc(Nc2ncnc3cc(OCCOC)c(OCCOC)cc23)c1 [erlotinib]
# Outline: (§1)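 K562 cells at 2×10^6 cells/mL were treated for 30 min with 10 μM compound, and aliquots were heated for 3 min over 48°C-58°C before pooling. Extraction used PBS with 0.5% NP-40 at 4°C, and soluble protein was the supernatant after 21,000xg for 90 min, measured by TMTpro 16plex LC-MS/MS with channel sums equalised. Thermal stability values, relative to control samples and from duplicates, are log2 fold changes.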
# [1] = compound: C/C(=N\NC(=O)C1=CC(=CC=C1)S(=O)(=O)N2CCOCC2)/C3=C(C=CC(=C3)Cl)O
# Outline: as §1
# [2] = compound: C1=CC(=C(C=C1Cl)C2=NC3=NC=CN=C3C(=N2)NC4=CC=NC=C4)F
# Outline: as §1
# [3] = compound: C1=CC(=CC=C1C2=NC3=C(N2)C=C(C=C3)C(=O)N)OC4=CC=C(C=C4)Cl
# Outline: as §1
# [4] = compound: C1=CC2=C(C=CC(=C2)/C=C\3/C(=O)NC(=NCC4=CC=CS4)S3)N=C1
# Outline: as §1
# [5] = compound: C1=CC2=NC=CN=C2C=C1/C=C/3\C(=O)NC(=O)S3
# Outline: as §1
# [6] = compound: C1=CC=C(C=C1)C2=NC(=C(N2)C3=CC=NC=C3)C4=CC(=C(C=C4)Cl)O
# Outline: as §1
# [7] = compound: C1=CC=C2C(=C1)C3=NNC4=CC=CC(=C43)C2=O
# Outline: as §1
# IRAK-1-4 Inhibitor I = compound: C1COCCN1CCN2C3=CC=CC=C3N=C2NC(=O)C4=CC(=CC=C4)[N+](=O)[O-] [IRAK-1-4 Inhibitor I]
# Outline: as §1
# ibrutinib = compound: C=CC(=O)N1CCC[C@@H](n2nc(-c3ccc(Oc4ccccc4)cc3)c3c(N)ncnc32)C1 [ibrutinib]
# Outline: as §1
# [8] = compound: CC(=O)c1cnc2ccc(-c3cc(Cl)c(O)c(Cl)c3)nc2c1N[C@H]1CC[C@H](CN(C)C)CC1
# Outline: as §1
# ralimetinib = compound: CC(C)(C)Cn1c(N)nc2ccc(-c3[nH]c(C(C)(C)C)nc3-c3ccc(F)cc3)nc21 [ralimetinib]
# Outline: as §1
# [9] = compound: CC(C)(O)CC(=O)NCCn1ccc2ncnc(Nc3ccc(Oc4cccc(C(F)(F)F)c4)c(Cl)c3)c21
# Outline: as §1
# [10] = compound: CC(C)C1=C2N=C(C=C(N2N=C1)NCC3=CC=CC=C3)NCCCCCCN
# Outline: as §1
# [11] = compound: CC(C)C[C@@H](C=O)NC(=O)[C@H](CC(C)C)NC(=O)[C@H](CC(C)C)NC(=O)OCc1ccccc1
# Outline: as §1
# pinometostat = compound: CC(C)N(C[C@H]1O[C@@H](n2cnc3c(N)ncnc32)[C@H](O)[C@@H]1O)[C@H]1C[C@@H](CCc2nc3cc(C(C)(C)C)ccc3[nH]2)C1 [pinometostat]
# Outline: as §1
# [12] = compound: CC1=C(C(CC(=O)N1)C2=CC=C(C=C2)C(F)(F)F)C(=O)NC3=C(C=C4C(=C3)C=NN4)F
# Outline: as §1
# [13] = compound: C1CCN(C1)C(=O)NC2=CC=CC(=C2)NC3=NC=C(C(=N3)NCCC4=CN=CN4)Br
# Outline: as §1
# [14] = compound: C1CN(CCC1(CC2=CC=C(C=C2)Cl)N)C3=NC=NC4=C3C=CN4
# Outline: as §1
# [15] = compound: CC1=C(C2=C(C=C1)C(=O)C3=CC=CC=C3N2CCCN)C
# Outline: as §1
Target,log2 fold change (erlotinib),log2 fold change [1],log2 fold change [2],log2 fold change [3],log2 fold change [4],log2 fold change [5],log2 fold change [6],log2 fold change [7],log2 fold change (IRAK-1-4 Inhibitor I),log2 fold change (ibrutinib),log2 fold change [8],log2 fold change (ralimetinib),log2 fold change [9],log2 fold change [10],log2 fold change [11],log2 fold change (pinometostat),log2 fold change [12],log2 fold change [13],log2 fold change [14],log2 fold change [15]
UPRT (UniProt Q96BW1),inactive: 0.023,inactive: 0.06,inactive: 0,inactive: 0.029,inactive: 0.092,inactive: 0.039,inactive: -0.013,inactive: -0.118,inactive: -0.041,inactive: 0.03,inactive: -0.154,inactive: 0.012,inactive: -0.088,inactive: 0.006,inactive: -0.125,inactive: -0.009,inactive: 0.057,,,
UBQLN3 (UniProt Q9H347),inactive: -0.116,inactive: -0.021,inactive: -0.079,inactive: 0.034,inactive: 0.159,,inactive: 0.053,inactive: -0.075,inactive: 0.064,,inactive: -0.064,inactive: -0.059,inactive: -0.047,inactive: 0.148,inactive: -0.09,inactive: -0.082,inactive: -0.104,inactive: 0.074,inactive: -0.039,inactive: 0.116
USP14 (UniProt P54578),inactive: -0.027,inactive: 0.03,inactive: 0.084,inactive: -0.014,inactive: -0.04,inactive: 0,inactive: 0.02,inactive: 0.015,inactive: -0.013,inactive: -0.045,inactive: -0.004,inactive: 0.021,inactive: -0.028,inactive: -0.068,inactive: 0.044,inactive: -0.031,,inactive: -0.016,inactive: -0.001,inactive: 0.014
UBLCP1 (UniProt Q8WVY7),inactive: 0.03,inactive: 0.089,inactive: 0.024,inactive: -0.022,inactive: -0.029,inactive: 0.005,inactive: -0.019,inactive: 0.038,inactive: -0.029,inactive: -0.072,inactive: -0.057,inactive: -0.104,inactive: -0.061,inactive: -0.027,inactive: 0.191,inactive: 0.017,,inactive: 0.035,active: -0.262,inactive: -0.155
UFD1 isoform 1 (UniProt Q92890),inactive: 0.001,inactive: 0.019,inactive: 0.051,inactive: -0.008,inactive: 0.012,inactive: 0.015,inactive: -0.01,inactive: -0.021,inactive: 0.025,inactive: -0.018,inactive: -0.005,inactive: 0,inactive: -0.04,inactive: 0.04,inactive: 0.021,inactive: -0.04,,inactive: -0.036,inactive: 0.024,inactive: 0
USP48 (UniProt Q86UV5),inactive: 0.228,,,inactive: -0.112,,inactive: 0.007,,,,inactive: -0.07,,,,inactive: -0.246,,,,,,
UMAD1 (UniProt C9J7I0),inactive: 0.115,,,inactive: 0.181,,inactive: 0.077,inactive: 0.192,,inactive: 0.067,inactive: 0.058,,inactive: -0.116,,inactive: -0.047,inactive: -0.249,inactive: -0.115,inactive: 0.047,inactive: -0.048,inactive: -0.365,inactive: 0.334
UBQLN1 isoform 2 (UniProt Q9UMX0),inactive: -0.25,,,inactive: -0.216,,,,,,,,,,inactive: 0.166,,,,,,
UBN2 (UniProt Q6ZU65),,,,,,,,,inactive: 0.03,,,,,,,inactive: -0.137,inactive: -0.034,,,
USP11 (UniProt P51784),,,inactive: -0.555,,,,inactive: -0.02,,,,,inactive: 0.167,inactive: 0.285,,inactive: -0.032,,,,,
UBXN10 (UniProt Q96LJ8),inactive: -0.036,,inactive: 0.004,inactive: 0.048,,inactive: -0.068,inactive: -0.077,,inactive: 0.027,inactive: 0.054,,inactive: -0.045,inactive: -0.145,inactive: -0.017,inactive: 0.038,inactive: 0.058,,inactive: -0.101,inactive: 0.128,inactive: 0.085
UBIAD1 (UniProt Q9Y5Z9),inactive: 0.101,inactive: -0.052,,inactive: 0.04,inactive: 0.194,inactive: -0.036,inactive: 0.259,active: 0.297,inactive: 0.012,inactive: -0.009,inactive: -0.055,inactive: -0.032,,inactive: -0.069,inactive: 0.029,inactive: -0.104,,inactive: 0,inactive: 0.094,inactive: 0.047

# 2 entries from above, reformatted:
Target | log2 fold change (erlotinib) | log2 fold change [1] | log2 fold change [2] | log2 fold change [3] | log2 fold change [4] | log2 fold change [5] | log2 fold change [6] | log2 fold change [7] | log2 fold change (IRAK-1-4 Inhibitor I) | log2 fold change (ibrutinib) | log2 fold change [8] | log2 fold change (ralimetinib) | log2 fold change [9] | log2 fold change [10] | log2 fold change [11] | log2 fold change (pinometostat) | log2 fold change [12] | log2 fold change [13] | log2 fold change [14] | log2 fold change [15]
USP14 (UniProt P54578) | inactive: -0.027 | inactive: 0.03 | inactive: 0.084 | inactive: -0.014 | inactive: -0.04 | inactive: 0 | inactive: 0.02 | inactive: 0.015 | inactive: -0.013 | inactive: -0.045 | inactive: -0.004 | inactive: 0.021 | inactive: -0.028 | inactive: -0.068 | inactive: 0.044 | inactive: -0.031 |  | inactive: -0.016 | inactive: -0.001 | inactive: 0.014
UBLCP1 (UniProt Q8WVY7) | inactive: 0.03 | inactive: 0.089 | inactive: 0.024 | inactive: -0.022 | inactive: -0.029 | inactive: 0.005 | inactive: -0.019 | inactive: 0.038 | inactive: -0.029 | inactive: -0.072 | inactive: -0.057 | inactive: -0.104 | inactive: -0.061 | inactive: -0.027 | inactive: 0.191 | inactive: 0.017 |  | inactive: 0.035 | active: -0.262 | inactive: -0.155
